# Measured values taken from patent US10716753B2, “Compositions for pulmonary delivery of long-acting muscarinic antagonists or long-acting B2 adrenergic receptor agonists and associated methods and systems” (priority 2009, dated 2020).
# Test system: patients with mild to moderate COPD
# Experiment: Multi-center crossover clinical trial, single administration: FEV1 spirometry
# Type: in vivo, human
# Conditions: 18 μg dose vs 20 μg dose reported by Singh et al.
smiles,measurement,value
"C[N+]1(C)CCC(OC(=O)C(O)(c2ccccc2)C2CCCC2)C1.[Br-] (stereo not shown) [glycopyrrolate, Pyrrolidinium, 3-((cyclopentylhydroxyphenylacetyl)oxy)-1,1-dimethyl-, bromide]",Bronchodilator response (FEV1 AUC) compared with Singh et al.,significantly better bronchodilator response
